Reference: publication PMC2778516

Tests used:
[1] = biological target: T1, Coxsackie and adenovirus receptor (rat, IEC-6 cells) (rat (endogenous in IEC-6)) (UniProt Q9R066); assay: co-IP; Immunoprecipitation Kit Protein G (Roche); initial immunoprecipitation with anti-CAR (H-300) or anti-α-catenin antibody; IgG rabbit as control; western blotting for CAR, α-catenin or ZO-1; DLD1 and IEC-6 cells
T1 sequence: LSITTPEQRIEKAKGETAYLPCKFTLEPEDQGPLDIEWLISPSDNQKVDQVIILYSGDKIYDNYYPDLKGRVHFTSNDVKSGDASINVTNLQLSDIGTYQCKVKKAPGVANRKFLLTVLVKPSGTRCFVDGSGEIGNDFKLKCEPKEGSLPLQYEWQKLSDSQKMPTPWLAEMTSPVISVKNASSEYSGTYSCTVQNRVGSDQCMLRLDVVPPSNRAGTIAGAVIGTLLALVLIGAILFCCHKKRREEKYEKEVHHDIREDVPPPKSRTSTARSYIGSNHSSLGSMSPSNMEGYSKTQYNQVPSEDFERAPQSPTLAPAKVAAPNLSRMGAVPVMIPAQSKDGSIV

[2] = biological target: α-catenin (rat, IEC-6 cells) (rat (endogenous in IEC-6)); assay: as above

Q: With α-catenin (rat, IEC-6 cells) as the molecule, how does the binding [1] read?
A: no binding

B1: Coxsackie and adenovirus receptor (rat, IEC-6 cells) (receptor, UniProt Q9R066 20-365)
chain: LSITTPEQRIEKAKGETAYLPCKFTLEPEDQGPLDIEWLISPSDNQKVDQVIILYSGDKIYDNYYPDLKGRVHFTSNDVKSGDASINVTNLQLSDIGTYQCKVKKAPGVANRKFLLTVLVKPSGTRCFVDGSGEIGNDFKLKCEPKEGSLPLQYEWQKLSDSQKMPTPWLAEMTSPVISVKNASSEYSGTYSCTVQNRVGSDQCMLRLDVVPPSNRAGTIAGAVIGTLLALVLIGAILFCCHKKRREEKYEKEVHHDIREDVPPPKSRTSTARSYIGSNHSSLGSMSPSNMEGYSKTQYNQVPSEDFERAPQSPTLAPAKVAAPNLSRMGAVPVMIPAQSKDGSIV
Q: B1 was tested. Which binding [2] did it give?
A: no binding

No constants are given. Whether binding was seen depends on the method and setting. Binding seen in cells or lysates may run through a third protein.
